# Experimental data published in EP4166560A1, “TRI-SUBSTITUTED TETRAHYDROFURANS AND USE THEREOF” (Consejo Superior de Investigaciones Cientificas, priority 2021, dated 2023).
# System: TGEV
# Assay: Quantitation of TGEV-induced cell death in ST cells by real-time automated microscopy (Cytotox)
# Assay type: cell-based, transmissible gastroenteritis virus (TGEV)
# Conditions: dose-response fit of TGEV-induced cell death
row,SMILES,Hill slope n
1,C[C@H]1OC[C@@H](c2ccccc2)[C@H]1[Si](c1ccccc1)(c1ccccc1)c1ccccc1 [SPL-4],2.52
2,C[C@@H]1O[C@@H](Cc2ccccc2)CC1[Si](c1ccccc1)(c1ccccc1)c1ccccc1 (stereo partly drawn) [SPL-0],2.87
3,CC(C)C[C@H]1C[C@@H]([Si](c2ccccc2)(c2ccccc2)c2ccccc2)[C@H](CCCCl)O1 [SPL-6],2.13
